Paper PMC8602370
Results are given in words; binding and its absence hold for the method and conditions named. Sequences can lack the tags named with a protein.

The chains behind the UniProt entries cited, without tags or fusion partners. Where a name states a change or a piece, a line headed by the entry shows the natural chain unless it says otherwise.
UniProt P09874: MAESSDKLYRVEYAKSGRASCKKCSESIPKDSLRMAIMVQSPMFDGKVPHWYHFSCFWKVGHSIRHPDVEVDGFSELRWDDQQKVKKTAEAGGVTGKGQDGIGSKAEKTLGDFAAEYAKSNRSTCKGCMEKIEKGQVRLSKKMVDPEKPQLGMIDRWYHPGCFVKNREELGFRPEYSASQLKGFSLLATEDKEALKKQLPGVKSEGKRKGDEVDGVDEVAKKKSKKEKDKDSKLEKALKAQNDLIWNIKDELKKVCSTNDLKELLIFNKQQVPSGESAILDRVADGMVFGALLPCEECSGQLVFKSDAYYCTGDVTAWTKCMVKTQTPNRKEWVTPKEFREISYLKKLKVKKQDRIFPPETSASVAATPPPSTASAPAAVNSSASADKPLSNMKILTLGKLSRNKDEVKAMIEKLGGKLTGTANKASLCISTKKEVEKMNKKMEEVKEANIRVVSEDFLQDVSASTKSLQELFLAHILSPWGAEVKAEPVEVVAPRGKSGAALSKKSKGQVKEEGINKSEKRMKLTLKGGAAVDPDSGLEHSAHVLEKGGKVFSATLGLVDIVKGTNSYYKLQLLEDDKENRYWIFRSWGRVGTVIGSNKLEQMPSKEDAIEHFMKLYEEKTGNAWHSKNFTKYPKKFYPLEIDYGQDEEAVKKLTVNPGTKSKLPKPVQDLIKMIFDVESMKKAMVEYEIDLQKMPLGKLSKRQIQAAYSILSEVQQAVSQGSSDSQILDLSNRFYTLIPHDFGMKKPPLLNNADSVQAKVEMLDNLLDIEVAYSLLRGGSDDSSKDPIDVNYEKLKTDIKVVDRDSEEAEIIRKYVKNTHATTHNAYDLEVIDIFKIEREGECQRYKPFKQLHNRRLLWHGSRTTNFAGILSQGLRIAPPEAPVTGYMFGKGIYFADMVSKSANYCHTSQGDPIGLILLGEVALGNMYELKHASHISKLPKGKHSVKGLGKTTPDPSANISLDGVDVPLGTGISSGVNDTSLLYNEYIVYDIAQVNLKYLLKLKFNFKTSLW

Target: T1, Histone PARylation Factor 1 (HPF1) (human) (UniProt Q9NWY4)
T1 sequence: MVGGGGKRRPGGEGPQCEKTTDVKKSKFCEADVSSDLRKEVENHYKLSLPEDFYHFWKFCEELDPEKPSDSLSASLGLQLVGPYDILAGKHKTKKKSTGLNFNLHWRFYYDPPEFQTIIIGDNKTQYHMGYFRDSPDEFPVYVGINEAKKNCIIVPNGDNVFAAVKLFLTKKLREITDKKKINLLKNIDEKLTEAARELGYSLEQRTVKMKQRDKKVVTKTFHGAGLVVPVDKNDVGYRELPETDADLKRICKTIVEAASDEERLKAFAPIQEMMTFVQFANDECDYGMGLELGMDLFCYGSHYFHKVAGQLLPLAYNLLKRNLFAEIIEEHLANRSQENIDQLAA
Test: SPR; HPF1 immobilised on a CM5 chip by amine coupling; PARP1 (800 nM) flowed over in the presence of DNA (800 nM) and EB47 (5 µM); 25 mM HEPES pH 7.4, 250 mM NaCl, 0.1 mM TCEP, 1 mM EDTA, 0.05% Tween20; both purified

binding: no binding (tested: 800 nM)
Substance: PARP1 H826E (from UniProt P09874 1-1014) (enzyme)
